# The list shows a part of the results.
# B1: Mincle (Bos taurus) (protein)
# chain: MNSSTSPASQTERRCFSFQLFSWAIAGTSILLLSACFITRCVVTYSIFQLCDEKKFQPPGDSMELSCYNDGSGSVKNCCPLKWFHFQSSCYLFSPDTMSWRASLKNCSSMGAHLVVINTQEEQEFLYYTKPRKKEFYIGLTDQVTEGQWQWVDGTPFTKSLSFWDAGEPNNLVIVEDCATIRDSSNPRQNWNDVPCFFNMFRVCEMPERKI
# Assays:
# Test in all cases: glycan array binding signal (z-score within array); higher = stronger binding
# Conditions in all cases: glycan notation: IUPAC condensed, linker removed
# Gal(b1-4)Glc = target: Gal(b1-4)Glc
# Outline: (§1)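 Glycan array binding is given as a within-array Z-score, which can be read as non-binding when negative. The arrays, 3228 of them, came from the Consortium for Functional Glycomics database and were retained only where the protein sequence was available. Z-scores were averaged across arrays of the same protein sequence at different concentrations or buffers and across linkers.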
# Gal(b1-4)Glc6S = target: Gal(b1-4)Glc6S
# Outline: as §1
# Gal(b1-4)GlcNAc = target: Gal(b1-4)GlcNAc
# Outline: as §1
# [1] = target: Gal(b1-4)GlcNAc(a1-6)Gal(b1-4)GlcNAc
# Outline: as §1
# Gal(b1-4)GlcNAc(b1-2)Man = target: Gal(b1-4)GlcNAc(b1-2)Man
# Outline: as §1
# [2] = target: Gal(b1-4)GlcNAc(b1-2)Man(a1-3)Man(b1-4)GlcNAc(b1-4)GlcNAc
# Outline: as §1
# [3] = target: Gal(b1-4)GlcNAc(b1-2)Man(a1-3)[Gal(b1-4)GlcNAc(b1-2)Man(a1-6)]Man(b1-4)GlcNAc(b1-4)GlcNAc
# Outline: as §1
# [4] = target: Gal(b1-4)GlcNAc(b1-2)Man(a1-3)[Gal(b1-4)GlcNAc(b1-2)Man(a1-6)]Man(b1-4)GlcNAc(b1-4)[Fuc(a1-6)]GlcNAc
# Outline: as §1
# [5] = target: Gal(b1-4)GlcNAc(b1-2)Man(a1-3)[Gal(b1-4)GlcNAc(b1-2)Man(a1-6)][Gal(b1-4)GlcNAc(b1-4)]Man(b1-4)GlcNAc(b1-4)[Fuc(a1-6)]GlcNAc
# Outline: as §1
# [6] = target: Gal(b1-4)GlcNAc(b1-2)Man(a1-3)[Gal(b1-4)GlcNAc(b1-2)Man(a1-6)][GlcNAc(b1-4)]Man(b1-4)GlcNAc(b1-4)[Fuc(a1-6)]GlcNAc
# Outline: as §1
# [7] = target: Gal(b1-4)GlcNAc(b1-2)Man(a1-3)[GlcNAc(b1-2)Man(a1-6)]Man(b1-4)GlcNAc(b1-4)GlcNAc
# Outline: as §1
# [8] = target: Gal(b1-4)GlcNAc(b1-2)Man(a1-3)[GlcNAc(b1-4)][Gal(b1-4)GlcNAc(b1-2)Man(a1-6)]Man(b1-4)GlcNAc(b1-4)GlcNAc
# Outline: as §1
# [9] = target: Gal(b1-4)GlcNAc(b1-2)Man(a1-3)[Man(a1-6)]Man(b1-4)GlcNAc(b1-4)GlcNAc
# Outline: as §1
# [10] = target: Gal(b1-4)GlcNAc(b1-2)Man(a1-6)Man(b1-4)GlcNAc(b1-4)GlcNAc
# Outline: as §1
# [11] = target: Gal(b1-4)GlcNAc(b1-2)Man(a1-6)[GlcNAc(b1-2)Man(a1-3)]Man(b1-4)GlcNAc(b1-4)GlcNAc
# Outline: as §1
# [12] = target: Gal(b1-4)GlcNAc(b1-2)Man(a1-6)[Man(a1-3)]Man(b1-4)GlcNAc(b1-4)GlcNAc
# Outline: as §1
# [13] = target: Gal(b1-4)GlcNAc(b1-2)[Gal(b1-4)GlcNAc(b1-4)]Man(a1-3)[Gal(b1-4)GlcNAc(b1-2)Man(a1-6)]Man(b1-4)GlcNAc(b1-4)GlcNAc
# Outline: as §1
# [14] = target: Gal(b1-4)GlcNAc(b1-2)[Gal(b1-4)GlcNAc(b1-4)]Man(a1-3)[Gal(b1-4)GlcNAc(b1-2)[Gal(b1-4)GlcNAc(b1-6)]Man(a1-6)]Man(b1-4)GlcNAc(b1-4)GlcNAc
# Outline: as §1
# [15] = target: Gal(b1-4)GlcNAc(b1-2)[Gal(b1-4)GlcNAc(b1-4)]Man(a1-3)[GlcNAc(b1-4)][Gal(b1-4)GlcNAc(b1-2)Man(a1-6)]Man(b1-4)GlcNAc(b1-4)GlcNAc
# Outline: as §1
# [16] = target: Gal(b1-4)GlcNAc(b1-2)[Gal(b1-4)GlcNAc(b1-4)]Man(a1-3)[GlcNAc(b1-4)][Gal(b1-4)GlcNAc(b1-2)[Gal(b1-4)GlcNAc(b1-6)]Man(a1-6)]Man(b1-4)GlcNAc(b1-4)GlcNAc
# Outline: as §1
# [17] = target: Gal(b1-4)GlcNAc(b1-2)[Gal(b1-4)GlcNAc(b1-6)]Man(a1-6)[Gal(b1-4)GlcNAc(b1-2)Man(a1-3)]Man(b1-4)GlcNAc(b1-4)GlcNAc
# Outline: as §1
# [18] = target: Gal(b1-4)GlcNAc(b1-2)[Gal(b1-4)GlcNAc(b1-6)]Man(a1-6)[Gal(b1-4)GlcNAc(b1-2)Man(a1-3)]Man(b1-4)GlcNAc(b1-4)[Fuc(a1-6)]GlcNAc
# Outline: as §1
binder,measurement,setting,value
B1,glycan array binding signal (z-score),Gal(b1-4)Glc,-0.282
same,glycan array binding signal (z-score),Gal(b1-4)Glc6S,0.6
same,glycan array binding signal (z-score),Gal(b1-4)GlcNAc,-0.249
same,glycan array binding signal (z-score),[1],-0.729
same,glycan array binding signal (z-score),Gal(b1-4)GlcNAc(b1-2)Man,-0.228
same,glycan array binding signal (z-score),[2],-0.512
same,glycan array binding signal (z-score),[3],-0.633
same,glycan array binding signal (z-score),[4],0.943
same,glycan array binding signal (z-score),[5],-0.91
same,glycan array binding signal (z-score),[6],-0.101
same,glycan array binding signal (z-score),[7],-0.617
same,glycan array binding signal (z-score),[8],-0.334
same,glycan array binding signal (z-score),[9],-0.043
same,glycan array binding signal (z-score),[10],-0.442
same,glycan array binding signal (z-score),[11],-0.48
same,glycan array binding signal (z-score),[12],0.848
same,glycan array binding signal (z-score),[13],0.607
same,glycan array binding signal (z-score),[14],-0.127
same,glycan array binding signal (z-score),[15],-0.73
same,glycan array binding signal (z-score),[16],-0.256
same,glycan array binding signal (z-score),[17],-0.55
same,glycan array binding signal (z-score),[18],0.126

# 2 neighbouring records already listed, quoted:
binder,measurement,setting,value
B1,glycan array binding signal (z-score),[3],-0.633
same,glycan array binding signal (z-score),[4],0.943

# From the supplement of paper PMC8728848
